According to US20080051378A1, “Combinations Comprising Antimuscarinic Agents and Corticosteroids” (priority 2004, published 2008):
At least one compound was matched to its structure with a doubt left.

Test system: ovoalbumin-sensitized guinea-pig isolated tracheal rings
Assay: Inhibition of the antigen (ovoalbumin)-induced contraction in ovoalbumin-sensitized guinea-pig isolated tracheal rings
Details: text summary of Table 1 and FIG. 1; 10 μM each
Description: Male Dunkin-Hartley guinea-pigs (weighing 380-420 g) from Harlan Ibérica (St. Feliu de Codines, Spain) are used. They are housed, with free access to food and water, in rooms kept at 22±2° C. under a 12 hours light-dark cycle until the start of the experiment.
The animals are sensitised by means of two sessions of aerosolization with a solution of 5 mg/ml of ovoalbumin on days zero and 7 of the study. The aerosolization procedure consists of two 30-s nebulisations (Efbe air brush apparatus) with an interval of 5 minutes with animals maintained in a plexiglass box for 10 minutes since the beginning of the procedure.
Between days 14 to 20 from the beginning of the experiment the animals are euthanised and the tracheal tissue is removed. A single tracheal ring is excised and suspended in an organ bath containing Krebs solution. Once attached to a force isometric transducer, it is submitted to a basal resting tension of 1 g, equilibrated with a mixture a 5% CO2 in O2 and maintained at 37° C.
The preparations are allowed to equilibrate for a period of not less than 60 minutes and then the vehicle or the compound(s) to be tested are added to the bath. […] At this moment ovoalbumin is added (at a final concentration in the bath of 10 μg/ml) to elicit the contractile response which is measured immediately.
The contractile responses measured with a force isometric transducer are expressed in mg.

CCCC1O[C@@H]2C[C@H]3[C@@H]4CCC5=CC(=O)C=C[C@]5(C)[C@H]4[C@@H](O)C[C@]3(C)[C@]2(C(=O)CO)O1 (stereo partly shown) [BUDESONIDE, budesonide]
inhibition of the contractile response, comparison in words: consistent effect inhibiting the contractile response
